The assay addresses PH-domain leucine-rich-repeat-containing protein phosphatase 1 (PHLPP1) (human (endogenous in RKO)) (UniProt O60346). As to the kind of experiment: co-IP; parental RKO cells fixed with 0.8% paraformaldehyde/PBS, lysed in IP lysis buffer (50 mM HEPES-KOH pH 7.5, 140 mM NaCl, 0.5% NP-40, 0.25% Triton X-100); 100 ug lysate with 3 ug anti-HSP47 or anti-PHLPP1 antibody overnight at 4 C, protein-L beads; Western blot.

The chains behind the UniProt entries cited, without tags or fusion partners.
UniProt O60346: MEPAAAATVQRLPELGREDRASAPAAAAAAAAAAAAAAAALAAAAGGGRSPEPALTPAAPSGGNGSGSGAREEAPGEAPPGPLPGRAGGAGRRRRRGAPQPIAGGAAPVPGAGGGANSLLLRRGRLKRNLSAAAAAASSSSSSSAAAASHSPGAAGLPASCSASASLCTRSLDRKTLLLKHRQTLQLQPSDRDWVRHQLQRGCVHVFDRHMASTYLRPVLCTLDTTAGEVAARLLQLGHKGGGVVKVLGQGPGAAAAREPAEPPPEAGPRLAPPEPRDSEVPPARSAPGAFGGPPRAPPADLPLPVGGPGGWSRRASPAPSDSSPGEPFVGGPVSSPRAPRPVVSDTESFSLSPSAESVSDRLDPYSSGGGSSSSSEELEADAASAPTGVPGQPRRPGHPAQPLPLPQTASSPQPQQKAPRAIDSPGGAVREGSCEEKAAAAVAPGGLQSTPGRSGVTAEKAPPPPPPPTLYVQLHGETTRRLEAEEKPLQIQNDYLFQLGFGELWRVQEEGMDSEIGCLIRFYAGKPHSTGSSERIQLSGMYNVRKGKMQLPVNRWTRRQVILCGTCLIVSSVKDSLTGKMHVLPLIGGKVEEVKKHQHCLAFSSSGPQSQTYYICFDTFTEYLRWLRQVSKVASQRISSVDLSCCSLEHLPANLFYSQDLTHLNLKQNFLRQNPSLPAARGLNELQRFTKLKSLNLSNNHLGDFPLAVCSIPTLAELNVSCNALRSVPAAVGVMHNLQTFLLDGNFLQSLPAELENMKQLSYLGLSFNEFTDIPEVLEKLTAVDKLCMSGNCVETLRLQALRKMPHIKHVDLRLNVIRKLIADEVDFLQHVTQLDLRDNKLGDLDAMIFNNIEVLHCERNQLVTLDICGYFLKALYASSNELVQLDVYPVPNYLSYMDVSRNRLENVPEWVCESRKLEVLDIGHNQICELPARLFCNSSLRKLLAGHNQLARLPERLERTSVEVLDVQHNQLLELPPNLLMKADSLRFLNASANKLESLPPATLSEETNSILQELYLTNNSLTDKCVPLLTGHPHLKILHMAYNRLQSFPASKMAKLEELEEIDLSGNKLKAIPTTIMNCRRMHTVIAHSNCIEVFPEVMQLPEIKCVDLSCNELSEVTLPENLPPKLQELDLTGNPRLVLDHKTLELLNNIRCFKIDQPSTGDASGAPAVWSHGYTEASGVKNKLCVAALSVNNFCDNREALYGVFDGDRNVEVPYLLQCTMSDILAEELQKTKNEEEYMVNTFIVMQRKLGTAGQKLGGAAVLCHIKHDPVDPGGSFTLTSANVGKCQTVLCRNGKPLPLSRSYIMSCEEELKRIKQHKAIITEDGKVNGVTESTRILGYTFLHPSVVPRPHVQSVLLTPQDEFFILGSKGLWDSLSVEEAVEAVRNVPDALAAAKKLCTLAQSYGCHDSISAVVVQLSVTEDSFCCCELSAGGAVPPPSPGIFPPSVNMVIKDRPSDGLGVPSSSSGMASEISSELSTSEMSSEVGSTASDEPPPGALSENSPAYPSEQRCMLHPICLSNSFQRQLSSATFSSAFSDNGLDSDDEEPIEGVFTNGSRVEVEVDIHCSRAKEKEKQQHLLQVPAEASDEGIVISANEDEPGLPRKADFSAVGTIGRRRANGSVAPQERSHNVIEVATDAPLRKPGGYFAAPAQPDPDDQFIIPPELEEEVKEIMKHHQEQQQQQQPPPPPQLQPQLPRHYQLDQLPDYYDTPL

These are yes or no findings as the source states them, for the method shown. In cells and extracts the contact can be indirect. Some entries that bind do so weakly or less than the wild type.

B1: Heat shock protein 47 (HSP47) (protein, UniProt P50454 19-418)
chain: AEVKKPAAAAAPGTAEKLSPKAATLAERSAGLAFSLYQAMAKDQAVENILVSPVVVASSLGLVSLGGKATTASQAKAVLSAEQLRDEEVHAGLGELLRSLSNSTARNVTWKLGSRLYGPSSVSFADDFVRSSKQHYNCEHSKINFRDKRSALQSINEWAAQTTDGKLPEVTKDVERTDGALLVNAMFFKPHWDEKFHHKMVDNRGFMVTRSYTVGVMMMHRTGLYNYYDDEKEKLQIVEMPLAHKLSSLIILMPHHVEPLERLEKLLTKEQLKIWMGKMQKKAVAISLPKGVVEVTHDLQKHLAGLGLTEAIDKNKADLSRMSGKKDLYLASVFHATAFELDTDGNPFDQDIYGREELRSPKLFYADHPFIFLVRDTQSGSLLFIGRLVRPKGDKMRDEL
In the case of B1, the binding entry is recorded as “binds”.

These data come from article PMC7309463.
